PubChem BioAssay AID1259308 | NCATS | 2017
The whole screen tested about 59,000 reagents; below is a part drawn at random. About 1,510 of them (2.6%) count as active. 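Calls use total luciferase alone and ignore viability, so some active siRNAs may act by altering cell number.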 The numbers tell different reagents against one gene apart.

Purpose: 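Genes whose loss raises luciferase production in HEK293 cells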 (primary screen)
System: human HEK293 embryonic kidney cells stably expressing firefly luciferase (HEK-CMV-Luc2-Hygro)
Knock-down reagent: single siRNA against human genes, 0.8 pmol siRNA per well
Time to read-out: 72 h
Read-out: 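Luciferase light (ONE-Glo) measured on one replicate plate set and viability (CellTiter-Glo) on the other, scaled to a negative control siRNA, with robust z-scores and luciferase per cell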
Scale: total luciferase, z-score and total luciferase, % of control: higher = more reporter protein produced; luciferase per cell, z-score: higher = more reporter output per viable cell; viable cells, % of control: higher = more viable cells
Call rule: 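Active when the median/MAD z-score for overall luciferase is greater than 3; a gene was taken forward for validation with new siRNAs if at least two of its three siRNAs passed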
Calls: active = raised luciferase; inactive = no rise

no.	Gene	reagent no.	total luciferase, z-score	total luciferase, % of control	luciferase per cell, z-score	viable cells, % of control	outcome
1	ITGB2 (integrin subunit beta 2)	1	-0.0848	80.2	-0.763	110	inactive
2	ITGB2 (integrin subunit beta 2)	2	0.155	85	0.809	76.7	inactive
3	ITGB2 (integrin subunit beta 2)	3	-0.173	78.4	0.242	82.2	inactive
4	RNF207 (ring finger protein 207)	1	1.15	105	0.931	91.6	inactive
5	RNF207 (ring finger protein 207)	2	0.476	91.4	0.259	95.4	inactive
6	RNF207 (ring finger protein 207)	3	1.3	108	1.62	78.5	inactive
7	BANF1 (barrier to autointegration nuclear assembly factor 1)	1	-0.0841	80.2	0.104	87.2	inactive
8	BANF1 (barrier to autointegration nuclear assembly factor 1)	2	0.208	86	0.0585	94.7	inactive
9	BANF1 (barrier to autointegration nuclear assembly factor 1)	3	-0.398	74	-0.0712	84.2	inactive
10	GPR35 (G protein-coupled receptor 35)	1	1.95	121	3.86	48.8	inactive
11	GPR35 (G protein-coupled receptor 35)	2	-1.89	44.2	-2.17	87.5	inactive
12	GPR35 (G protein-coupled receptor 35)	3	-0.502	71.9	0.936	62.8	inactive
13	CTSLP3 (cathepsin L pseudogene 3)	1	0.346	88.8	0.225	93.5	inactive
14	CTSLP3 (cathepsin L pseudogene 3)	2	0.629	94.4	0.415	94.6	inactive
15	CTSLP3 (cathepsin L pseudogene 3)	3	-0.462	72.7	-0.643	96.2	inactive
16	TFG (trafficking from ER to golgi regulator)	1	0.663	95.1	-0.0503	108	inactive
17	TFG (trafficking from ER to golgi regulator)	2	-0.399	74	-0.92	105	inactive
18	TFG (trafficking from ER to golgi regulator)	3	0.544	92.7	-0.552	120	inactive
19	IRX4 (iroquois homeobox 4)	1	-0.23	77.3	-0.0839	88.3	inactive
20	IRX4 (iroquois homeobox 4)	2	-0.121	79.5	-0.483	101	inactive
21	IRX4 (iroquois homeobox 4)	3	2.65	135	2.9	70.2	inactive
22	KRTAP5-9 (keratin associated protein 5-9)	1	-0.936	63.3	-0.893	89.5	inactive
23	KRTAP5-9 (keratin associated protein 5-9)	2	-0.771	66.6	-0.0562	75.5	inactive
24	KRTAP5-9 (keratin associated protein 5-9)	3	1.43	110	1.05	93.5	inactive

2 entries from above, reformatted.
GPR35 (G protein-coupled receptor 35) #3: total luciferase, z-score = -0.502; total luciferase, % of control = 71.9; luciferase per cell, z-score = 0.936; viable cells, % of control = 62.8; outcome = inactive
CTSLP3 (cathepsin L pseudogene 3) #1: total luciferase, z-score = 0.346; total luciferase, % of control = 88.8; luciferase per cell, z-score = 0.225; viable cells, % of control = 93.5; outcome = inactive
